These are yes or no findings as the source states them, for the method shown.

Protein sequences, listed by entry. Tags and fused reporters are not part of them. Lines headed by an entry give the natural chain unless they say otherwise; changes in a name come on top. Chains listed by the source or under a name are the forms on record and can include a tag or linker. Residues count along the entry.
ARID (residues 968–1143) of BAF250a, wild type (O14497, residues 968-1143): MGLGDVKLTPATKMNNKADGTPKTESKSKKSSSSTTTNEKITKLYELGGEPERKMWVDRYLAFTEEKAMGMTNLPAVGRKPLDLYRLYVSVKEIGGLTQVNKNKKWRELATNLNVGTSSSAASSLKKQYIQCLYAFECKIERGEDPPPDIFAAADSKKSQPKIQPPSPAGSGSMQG
ARID (residues 968–1143) of BAF250a, V1067G mutant (O14497, form named): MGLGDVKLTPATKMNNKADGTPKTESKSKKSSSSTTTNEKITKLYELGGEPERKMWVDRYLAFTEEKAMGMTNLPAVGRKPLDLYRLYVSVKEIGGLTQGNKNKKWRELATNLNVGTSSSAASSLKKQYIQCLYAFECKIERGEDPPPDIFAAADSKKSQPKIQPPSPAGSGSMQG

The target in test [1] is ARID (residues 968–1143) of BAF250a, wild type (human) (UniProt O14497). As to the kind of experiment: SEC; gel-filtration step of the purification; buffer 50 mM NaH2PO4, pH 6, 0.025 mM EDTA; both purified. For orientation: In gel filtration, larger molecules generally elute earlier.
Test [2] deals with ARID (residues 968–1143) of BAF250a, V1067G mutant (human) (UniProt O14497). The test is described as above.

As for “ARID (residues 968–1143) of BAF250a, wild type (from UniProt O14497 968-1143) (domain or fragment)”, in test [1], the binding result is recorded as “no binding”.
Consider “ARID (residues 968–1143) of BAF250a, V1067G mutant (from UniProt O14497 968-1143) (domain or fragment)”, for which the binding result in test [2] was “no binding”.

Values taken from publication PMC6181354, “Domain architecture of BAF250a reveals the ARID and ARM-repeat domains with implication in function and assembly of the BAF remodeling complex”.
